Residue numbers refer to the chain shown, from its start. No constants are given. Whether binding was seen depends on the method and setting. Some entries that bind do so weakly or less than the wild type.
Columns and labels:
[1] = target: full length recombinant human 2N4R tau (amino acids 1-441) (human) (UniProt P10636); assay: ELISA on full length 2N4R tau 100 ng/well, HEK293F supernatant 1:50, anti-rabbit IgG-HRP, n=1
[2] = target: T1, antigen peptide [C]-…-amide (tau 396-410 with N-terminal cysteine) (human); assay: ELISA on peptide SEQ ID NO: 13, HEK293F supernatant 1:50, anti-rabbit IgG-HRP, n=1
T1 sequence (peptide, C-terminal amide): CSPVVSGDTSPRHLSN

Sequences of proteins named here, by UniProt entry; tags and fusion partners are left off. A change or cut given only in a name is not applied to a line headed by its entry.
UniProt P10636: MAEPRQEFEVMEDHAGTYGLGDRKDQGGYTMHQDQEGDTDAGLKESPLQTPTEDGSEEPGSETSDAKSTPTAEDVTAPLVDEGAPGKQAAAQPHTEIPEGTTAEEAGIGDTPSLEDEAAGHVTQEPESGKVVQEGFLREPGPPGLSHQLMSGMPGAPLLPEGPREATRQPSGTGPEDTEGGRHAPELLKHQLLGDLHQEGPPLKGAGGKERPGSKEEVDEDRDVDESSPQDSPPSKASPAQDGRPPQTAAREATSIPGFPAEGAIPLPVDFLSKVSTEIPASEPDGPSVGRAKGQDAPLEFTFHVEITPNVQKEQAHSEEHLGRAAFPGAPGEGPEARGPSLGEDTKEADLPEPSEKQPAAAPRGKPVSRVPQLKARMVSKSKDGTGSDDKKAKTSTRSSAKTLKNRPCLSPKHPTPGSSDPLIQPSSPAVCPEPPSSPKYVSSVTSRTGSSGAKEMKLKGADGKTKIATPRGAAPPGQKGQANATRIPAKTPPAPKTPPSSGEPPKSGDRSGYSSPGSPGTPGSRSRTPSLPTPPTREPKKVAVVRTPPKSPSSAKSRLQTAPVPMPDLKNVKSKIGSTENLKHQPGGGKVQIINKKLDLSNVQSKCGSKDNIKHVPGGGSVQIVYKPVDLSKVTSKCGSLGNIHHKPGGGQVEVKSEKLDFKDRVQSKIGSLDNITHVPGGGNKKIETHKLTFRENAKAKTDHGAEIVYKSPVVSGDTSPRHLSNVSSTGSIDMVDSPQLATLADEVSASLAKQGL

[3] = target: T1, antigen peptide [C]-…-amide (tau 396-410 with N-terminal cysteine) (human); assay: ELISA, HEK293F supernatant on coated peptide
[4] = target: full length recombinant human 2N4R tau (amino acids 1-441) (human) (UniProt P10636); assay: western blot, HEK293F supernatant
[5] = target: full length recombinant human 2N4R tau (amino acids 1-441) (human) (UniProt P10636); assay: western blot, HEK supernatant
[6] = target: full length recombinant human 2N4R tau (amino acids 1-441) (human) (UniProt P10636); assay: western blot with HEK supernatant
[7] = target: T2, linear peptide 396…410 (tau 396-410), lead sequence of the Pepscan array (human); assay: Pepscan peptide array ELISA, antibody 0.25 µg/mL, CCD read-out 0-3000 mAU
T2 sequence (peptide): SPVVSGDTSPRHLSN

[8] = target: full length recombinant human 2N4R tau (amino acids 1-441) (human) (UniProt P10636); assay: ELISA on full length 2N4R tau 100 ng/well, purified IgG, anti-rabbit IgG-HRP, n=2 wells
[9] = target: T2, linear peptide 396…410 (tau 396-410), lead sequence of the Pepscan array (human); assay: Pepscan peptide-array ELISA
[10] = target: full length recombinant human 2N4R tau (amino acids 1-441) (human) (UniProt P10636); assay: ELISA, purified IgG
[11] = target: full length recombinant human 2N4R tau (amino acids 1-441) (human) (UniProt P10636); assay: phage ELISA
[12] = target: T1, antigen peptide [C]-…-amide (tau 396-410 with N-terminal cysteine) (human); assay: phage ELISA, phage supernatant 1:25, anti-M13-HRP, n=1
[13] = target: full length recombinant human 2N4R tau (amino acids 1-441) (human) (UniProt P10636); assay: phage ELISA, tau 100 ng/well, phage supernatant 1:25, anti-M13-HRP, n=1
[14] = target: T1, antigen peptide [C]-…-amide (tau 396-410 with N-terminal cysteine) (human); assay: phage ELISA, peptide conjugated to BSA or transferrin

Measured: binding

B1: Clone 5 rabbit monoclonal IgG (antibody, V domains shown)
VH: QSLEESGGRLVAPGTPLTLTCTVSGFSLSSYDMSWVRQAPGRGLEWIGTISSSYRTYYASWAKGRFTISKTSSTTVDLKMTSLTTEDTATYFCASSGIWGPGTLVTVSL
VL: AQVLTQTASPVSAAVGGTVTINCQSSQRVYNNYLAWYQQKPGQPPKRLIYLASTLESGVPSRFSGSGSGTQFTLTISGVVCDDAATYYCAGTYSGSIWAFGGGTEVVVKG
binds: [1] | [2] | [3]

B2: Clone 3 rabbit monoclonal IgG (antibody, V domains shown)
VH: B1 VH with L3V, A12T, V23A, S30R, R42K, S52G, R55N, A59M
VL: B1 VL with N31S, A35S, K46R, Y50W
binds: [4] | [1] | [5] | [6] | [2] | [3]

B3: Clone 4 rabbit monoclonal IgG (antibody, V domains shown)
VH: B1 VH with L3V, A12T, R42K, S51G, S52R, S53Y, R55N, S60T
VL: AQVLTQTASPVSAAVGGTVTINCQSSQTVYNNNYLSWYQQKPGQPPKRLIYLASTLESGVPSRFSGSGSGTQFTLTISGVVCDDAATYYCAGTYSGSIWAFGGGTEVVVKG
binds: [4] | [1] | [5] | [6] | [2] | [3]

B4: Clone 1 rabbit monoclonal IgG (antibody, V domains shown)
VH: QSLEESGGGLVKPGGTLTLTCTVSGFSLNNYDMSWVRQAPGKGLEWIGTVSTTYRRYYASWAKGRFTISKTSSTTVDLKMTSLTTEDTATYFCAASGIWGPGTLVTVSL
VL: B1 VL with A8T, N31S, Y50F, G78D, V79L, V80E, S94T
binds: [7] | [8] | [4] | [1] | [9] | [5] | [10] | [6] | [2] | [3]

B5: Clone 6 rabbit monoclonal IgG (antibody, V domains shown)
VH: B1 VH with L3V, A12T, R42K, S51G, S52R, S53Y, R55N, S60T
VL: B3 VL
binds: [1] | [2] | [3]

B6: Clone 8 rabbit monoclonal IgG (antibody, V domains shown)
VH: B1 VH
VL: B1 VL
binds: [1] | [2] | [3]

B7: Clone 7 rabbit monoclonal IgG (antibody, V domains shown)
VH: B1 VH with L3V, A12T, R42K, S51G, S52R, S53Y, R55N, S60T
VL: B3 VL
binds: [1] | [2] | [3]

B8: Clone 13 human scFv (phage displayed) (scFv, V domains shown)
VH: ESGGGVVKPGGSLRLACEASGFTFNKYAMSWVRQAPGKGLEWVSGNSGSGNSTYYADSVKGRFTISRDNSKNILYLDMNNLRAEDTALYYCAKTRGAGRRKPYGMDVWGHGTTVTVSS
VL: VMTQSPSTLSLSPGERATLSCRASQSVANNYLAWYQHKPGQAPRVLIYGASSRATGIPDRFSGSGSGTDFTLTISRLEPEDFAVYYCQQYGSSPRTFGGGTKLEIK
binds: [11] | [12] | [13] | [14]
